Earlier results, collected in publication PMC10046692 (Cancers, 2023).

Assays:
[1] = tested on: C4-2B cells; details: read-out: IC50 values C4-2B; cited from earlier work
[2] = tested on: 22Rv1 cells; details: read-out: IC50 values 22RV1; cited from earlier work
[3] = tested on: LNCaP cells; details: read-out: IC50 values LnCaP; cited from earlier work

CNC(=O)c1ccc(N2C(=S)N(c3ccc(C#N)c(C(F)(F)F)c3)C(=O)C2(C)C)cc1F [Enzalutamide]
IC50 [1]: 1190 nM
IC50 [2]: 1380 nM
IC50 [3]: 1890 nM
